Measured values taken from patent publication US20100298213A1, “Pharmaceutically Active Insulin Receptor-Modulating Molecules” (Novo Nordisk A/S, priority 2004, published 2010).
The name of at least one read-out is uncertain.

Tested on: mouse adipocytes
Assay: Glucose uptake in mouse adipocytes (FFC)
Type: cell-based
Conditions: word printed in the EC50 (FFC) column

GSLDESFYDWFERQLG-pox-pox-SLEEEWAQIQCEVWGRGCPSESFYDWFERQL [compound 728]
EC50 (FFC): kind of activity in words: partial
